Some of the results follow.
Columns and labels:
Experiment in all cases: log2 fold change, soluble protein after heating vs DMSO (PISA); higher = thermal stabilisation; K562 lysate, 10 uM; active = over 0.2 and 3.5 SD of the protein, either way, in both replicates (recomputed)
erlotinib = compound: C#Cc1cccc(Nc2ncnc3cc(OCCOC)c(OCCOC)cc23)c1 [erlotinib]
Summary of the method: (§1)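 Following dounce homogenisation of K562 pellets in PBS pH 7.4 with 1 mM MgCl2, crude extract at 1 mg/mL protein was incubated for 30 min with 10 μM compound. Aliquots were then heated for 3 min over 48°C-58°C and pooled, NP-40 was added to 0.5% at 4°C, and soluble protein was recovered as the supernatant at 21,000xg for 90 min. Channel-sum-equalised TMTpro 16plex LC-MS/MS quantified this protein. Each value, from duplicates, is a log-two fold change in thermal stability relative to solvent controls.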

The chains behind the UniProt entries cited, without tags or fusion partners. Where a name states a change or a piece, a line headed by the entry shows the natural chain unless it says otherwise.
UniProt Q9H9T3: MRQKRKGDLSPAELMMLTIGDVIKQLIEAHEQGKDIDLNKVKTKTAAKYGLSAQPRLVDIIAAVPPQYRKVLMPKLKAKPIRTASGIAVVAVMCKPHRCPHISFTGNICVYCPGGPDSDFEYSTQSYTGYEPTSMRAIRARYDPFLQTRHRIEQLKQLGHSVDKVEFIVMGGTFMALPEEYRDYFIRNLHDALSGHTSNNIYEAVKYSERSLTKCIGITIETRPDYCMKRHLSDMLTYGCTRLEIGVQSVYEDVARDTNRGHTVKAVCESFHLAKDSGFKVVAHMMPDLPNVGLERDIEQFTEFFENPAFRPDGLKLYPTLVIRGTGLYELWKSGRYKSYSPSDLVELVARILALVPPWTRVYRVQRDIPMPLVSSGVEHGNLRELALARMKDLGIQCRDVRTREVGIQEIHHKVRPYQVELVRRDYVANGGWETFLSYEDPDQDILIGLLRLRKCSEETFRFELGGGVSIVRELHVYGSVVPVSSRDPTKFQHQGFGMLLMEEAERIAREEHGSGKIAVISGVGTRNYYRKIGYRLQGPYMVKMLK
UniProt P09104, whole entry, looked up: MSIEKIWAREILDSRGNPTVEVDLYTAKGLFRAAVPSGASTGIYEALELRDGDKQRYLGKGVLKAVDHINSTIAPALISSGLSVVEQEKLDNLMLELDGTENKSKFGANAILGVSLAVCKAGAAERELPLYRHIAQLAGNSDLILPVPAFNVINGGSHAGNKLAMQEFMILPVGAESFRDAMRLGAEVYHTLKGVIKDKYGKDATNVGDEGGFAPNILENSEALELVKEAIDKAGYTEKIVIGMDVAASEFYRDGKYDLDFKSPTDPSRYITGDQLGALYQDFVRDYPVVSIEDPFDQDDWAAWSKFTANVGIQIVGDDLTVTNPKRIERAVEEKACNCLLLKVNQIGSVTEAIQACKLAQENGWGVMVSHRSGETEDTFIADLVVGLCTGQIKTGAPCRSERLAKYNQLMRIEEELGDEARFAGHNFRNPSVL
UniProt Q9NR50: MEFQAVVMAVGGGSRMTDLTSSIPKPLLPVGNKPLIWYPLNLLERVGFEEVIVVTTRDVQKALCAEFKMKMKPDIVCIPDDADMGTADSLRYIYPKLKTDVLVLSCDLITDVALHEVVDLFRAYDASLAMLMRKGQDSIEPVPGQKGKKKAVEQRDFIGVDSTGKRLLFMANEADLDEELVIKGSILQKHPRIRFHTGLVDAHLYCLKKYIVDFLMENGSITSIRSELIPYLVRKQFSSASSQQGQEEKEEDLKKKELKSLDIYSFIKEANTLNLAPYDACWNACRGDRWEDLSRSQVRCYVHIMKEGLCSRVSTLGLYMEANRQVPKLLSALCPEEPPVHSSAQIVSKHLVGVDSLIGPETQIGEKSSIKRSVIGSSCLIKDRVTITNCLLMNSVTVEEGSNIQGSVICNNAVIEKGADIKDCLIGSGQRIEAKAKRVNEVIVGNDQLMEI
UniProt O43402: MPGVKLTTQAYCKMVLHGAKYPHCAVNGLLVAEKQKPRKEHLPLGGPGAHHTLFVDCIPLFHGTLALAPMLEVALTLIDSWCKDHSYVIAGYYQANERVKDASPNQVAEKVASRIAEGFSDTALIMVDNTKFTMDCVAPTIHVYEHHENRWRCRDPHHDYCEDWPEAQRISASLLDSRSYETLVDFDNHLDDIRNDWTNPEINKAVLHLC
UniProt P49770: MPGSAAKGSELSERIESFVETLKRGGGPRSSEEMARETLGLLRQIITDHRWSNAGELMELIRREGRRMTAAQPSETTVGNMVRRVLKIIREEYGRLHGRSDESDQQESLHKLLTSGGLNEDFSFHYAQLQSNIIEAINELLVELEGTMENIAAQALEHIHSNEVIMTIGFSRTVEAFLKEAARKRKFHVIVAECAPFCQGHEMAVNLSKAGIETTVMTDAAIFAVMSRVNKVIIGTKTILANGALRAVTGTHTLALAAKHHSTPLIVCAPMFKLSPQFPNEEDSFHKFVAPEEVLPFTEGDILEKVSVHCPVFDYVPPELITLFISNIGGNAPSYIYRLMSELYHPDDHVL
UniProt Q9NRA8: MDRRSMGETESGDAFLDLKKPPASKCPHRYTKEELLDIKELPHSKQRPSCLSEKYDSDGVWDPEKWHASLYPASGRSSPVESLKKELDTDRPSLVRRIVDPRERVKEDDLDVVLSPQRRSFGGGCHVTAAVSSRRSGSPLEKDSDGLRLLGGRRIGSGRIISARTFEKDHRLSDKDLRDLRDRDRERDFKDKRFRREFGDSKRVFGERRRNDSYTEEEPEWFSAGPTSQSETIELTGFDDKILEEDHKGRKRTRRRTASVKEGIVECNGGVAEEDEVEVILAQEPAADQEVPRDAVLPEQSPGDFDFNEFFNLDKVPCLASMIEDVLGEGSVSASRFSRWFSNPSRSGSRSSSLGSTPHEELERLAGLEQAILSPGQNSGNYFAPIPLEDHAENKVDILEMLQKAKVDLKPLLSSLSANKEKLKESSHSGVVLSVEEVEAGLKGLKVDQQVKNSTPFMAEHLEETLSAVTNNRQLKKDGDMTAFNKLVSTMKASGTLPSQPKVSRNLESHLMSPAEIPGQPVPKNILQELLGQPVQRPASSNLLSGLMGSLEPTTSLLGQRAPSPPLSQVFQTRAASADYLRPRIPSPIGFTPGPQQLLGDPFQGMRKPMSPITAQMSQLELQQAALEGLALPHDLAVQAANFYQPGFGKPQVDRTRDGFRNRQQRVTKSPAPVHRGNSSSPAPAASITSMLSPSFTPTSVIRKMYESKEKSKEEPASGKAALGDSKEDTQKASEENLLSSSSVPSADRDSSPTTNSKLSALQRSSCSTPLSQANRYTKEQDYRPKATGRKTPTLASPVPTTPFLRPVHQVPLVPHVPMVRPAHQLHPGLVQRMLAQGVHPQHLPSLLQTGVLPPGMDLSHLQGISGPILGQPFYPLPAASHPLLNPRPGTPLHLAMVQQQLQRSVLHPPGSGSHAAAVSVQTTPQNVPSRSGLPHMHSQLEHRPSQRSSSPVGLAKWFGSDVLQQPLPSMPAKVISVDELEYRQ
UniProt P38919, whole entry, looked up: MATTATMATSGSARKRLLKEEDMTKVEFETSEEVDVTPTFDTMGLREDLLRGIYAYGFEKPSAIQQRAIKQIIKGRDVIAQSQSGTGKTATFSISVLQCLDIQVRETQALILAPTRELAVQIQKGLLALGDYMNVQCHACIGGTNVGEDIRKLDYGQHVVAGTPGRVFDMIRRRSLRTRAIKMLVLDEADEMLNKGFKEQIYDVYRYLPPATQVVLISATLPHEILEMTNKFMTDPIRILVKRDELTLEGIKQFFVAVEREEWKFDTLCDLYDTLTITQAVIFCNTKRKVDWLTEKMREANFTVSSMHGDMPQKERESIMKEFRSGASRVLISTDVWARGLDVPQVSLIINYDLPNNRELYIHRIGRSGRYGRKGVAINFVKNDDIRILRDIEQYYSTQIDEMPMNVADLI
UniProt Q15723: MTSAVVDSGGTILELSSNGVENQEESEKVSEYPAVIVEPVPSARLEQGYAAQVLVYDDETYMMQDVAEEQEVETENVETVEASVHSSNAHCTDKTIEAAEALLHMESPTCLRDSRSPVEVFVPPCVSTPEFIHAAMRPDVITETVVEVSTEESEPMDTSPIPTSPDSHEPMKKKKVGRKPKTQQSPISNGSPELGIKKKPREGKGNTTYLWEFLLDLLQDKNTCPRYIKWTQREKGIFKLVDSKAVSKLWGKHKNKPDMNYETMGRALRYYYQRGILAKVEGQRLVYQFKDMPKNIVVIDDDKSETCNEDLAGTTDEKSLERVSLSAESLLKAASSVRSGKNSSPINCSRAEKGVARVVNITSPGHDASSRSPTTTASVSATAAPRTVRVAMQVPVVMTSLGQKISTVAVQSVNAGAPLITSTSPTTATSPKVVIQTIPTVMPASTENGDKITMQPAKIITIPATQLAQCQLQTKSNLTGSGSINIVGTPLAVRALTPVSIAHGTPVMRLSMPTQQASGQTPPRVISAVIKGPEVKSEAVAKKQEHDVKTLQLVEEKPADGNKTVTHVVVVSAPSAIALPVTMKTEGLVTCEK
UniProt Q96RQ1: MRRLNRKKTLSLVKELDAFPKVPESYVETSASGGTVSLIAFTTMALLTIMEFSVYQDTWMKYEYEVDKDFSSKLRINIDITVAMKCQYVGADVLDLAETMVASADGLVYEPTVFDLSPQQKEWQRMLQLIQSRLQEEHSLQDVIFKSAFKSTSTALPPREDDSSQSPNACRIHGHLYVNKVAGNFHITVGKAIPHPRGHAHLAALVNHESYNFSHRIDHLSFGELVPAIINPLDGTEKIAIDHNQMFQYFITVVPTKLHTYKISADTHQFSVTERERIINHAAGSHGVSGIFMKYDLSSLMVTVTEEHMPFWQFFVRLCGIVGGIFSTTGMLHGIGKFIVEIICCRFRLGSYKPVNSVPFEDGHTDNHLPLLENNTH
UniProt P60842, whole entry, looked up: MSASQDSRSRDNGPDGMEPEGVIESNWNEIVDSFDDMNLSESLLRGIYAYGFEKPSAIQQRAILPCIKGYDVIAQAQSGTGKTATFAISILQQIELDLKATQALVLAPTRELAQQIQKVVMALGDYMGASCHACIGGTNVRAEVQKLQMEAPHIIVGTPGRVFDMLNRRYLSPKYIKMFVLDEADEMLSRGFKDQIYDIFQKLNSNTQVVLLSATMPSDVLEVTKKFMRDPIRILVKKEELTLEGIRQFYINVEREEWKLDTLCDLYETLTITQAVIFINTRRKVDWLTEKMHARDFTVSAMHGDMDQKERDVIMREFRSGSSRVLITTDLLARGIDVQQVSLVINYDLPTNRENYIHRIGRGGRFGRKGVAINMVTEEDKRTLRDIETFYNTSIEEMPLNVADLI
UniProt O75821, whole entry, looked up: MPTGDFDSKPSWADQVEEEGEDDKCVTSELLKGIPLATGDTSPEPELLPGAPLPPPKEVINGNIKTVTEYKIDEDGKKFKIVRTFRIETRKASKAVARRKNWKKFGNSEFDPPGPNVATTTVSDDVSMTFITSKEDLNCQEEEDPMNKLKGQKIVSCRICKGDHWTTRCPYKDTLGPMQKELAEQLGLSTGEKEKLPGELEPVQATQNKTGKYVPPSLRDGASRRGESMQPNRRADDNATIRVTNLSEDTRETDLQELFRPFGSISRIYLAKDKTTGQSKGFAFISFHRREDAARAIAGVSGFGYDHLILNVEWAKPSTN
UniProt P19525: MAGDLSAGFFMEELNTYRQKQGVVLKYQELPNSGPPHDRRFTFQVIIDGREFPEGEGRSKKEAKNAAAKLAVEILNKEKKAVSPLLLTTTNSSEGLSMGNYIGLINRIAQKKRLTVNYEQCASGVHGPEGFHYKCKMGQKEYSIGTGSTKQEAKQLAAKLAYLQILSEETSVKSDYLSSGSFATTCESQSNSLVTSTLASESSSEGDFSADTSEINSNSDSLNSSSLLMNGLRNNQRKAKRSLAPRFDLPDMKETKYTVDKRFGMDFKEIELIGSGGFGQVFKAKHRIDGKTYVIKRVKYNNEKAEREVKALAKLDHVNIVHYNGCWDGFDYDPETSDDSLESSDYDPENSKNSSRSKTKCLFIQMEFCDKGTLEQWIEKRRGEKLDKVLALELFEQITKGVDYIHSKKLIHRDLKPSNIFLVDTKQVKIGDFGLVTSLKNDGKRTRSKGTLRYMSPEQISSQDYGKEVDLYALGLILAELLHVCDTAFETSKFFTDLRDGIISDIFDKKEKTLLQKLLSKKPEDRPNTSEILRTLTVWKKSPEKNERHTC
UniProt P11171, whole entry, looked up: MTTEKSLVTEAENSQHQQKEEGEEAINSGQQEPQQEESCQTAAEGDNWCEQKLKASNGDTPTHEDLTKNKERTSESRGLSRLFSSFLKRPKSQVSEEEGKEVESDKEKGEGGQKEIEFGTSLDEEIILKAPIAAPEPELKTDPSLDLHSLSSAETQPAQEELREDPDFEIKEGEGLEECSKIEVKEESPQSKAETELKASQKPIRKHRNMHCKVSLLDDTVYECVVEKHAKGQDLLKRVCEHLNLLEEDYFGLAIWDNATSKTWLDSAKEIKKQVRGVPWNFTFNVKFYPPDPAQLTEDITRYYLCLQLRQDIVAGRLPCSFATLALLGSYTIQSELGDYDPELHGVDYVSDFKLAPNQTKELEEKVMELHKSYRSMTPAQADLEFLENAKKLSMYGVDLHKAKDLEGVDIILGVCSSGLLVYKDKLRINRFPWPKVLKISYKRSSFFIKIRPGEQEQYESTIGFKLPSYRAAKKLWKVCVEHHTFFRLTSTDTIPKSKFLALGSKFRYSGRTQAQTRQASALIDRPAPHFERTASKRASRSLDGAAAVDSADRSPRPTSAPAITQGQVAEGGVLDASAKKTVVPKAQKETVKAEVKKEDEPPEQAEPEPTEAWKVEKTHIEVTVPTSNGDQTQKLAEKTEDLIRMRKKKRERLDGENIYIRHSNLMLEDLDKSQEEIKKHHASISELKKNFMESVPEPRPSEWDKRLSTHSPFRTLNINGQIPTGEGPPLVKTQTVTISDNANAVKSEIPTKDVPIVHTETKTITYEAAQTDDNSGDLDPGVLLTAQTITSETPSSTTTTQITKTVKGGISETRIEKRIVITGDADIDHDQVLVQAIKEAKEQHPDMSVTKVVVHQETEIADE

[1] = compound: C/C(=N\NC(=O)C1=CC(=CC=C1)S(=O)(=O)N2CCOCC2)/C3=C(C=CC(=C3)Cl)O
Summary of the method: as §1

[2] = compound: C1=CC(=CC=C1C2=NC3=C(N2)C=C(C=C3)C(=O)N)OC4=CC=C(C=C4)Cl
Summary of the method: as §1

[3] = compound: C1=CC2=C(C=CC(=C2)/C=C\3/C(=O)NC(=NCC4=CC=CS4)S3)N=C1
Summary of the method: as §1

[4] = compound: C1=CC2=NC=CN=C2C=C1/C=C/3\C(=O)NC(=O)S3
Summary of the method: as §1

[5] = compound: C1=CC=C(C=C1)C2=NC(=C(N2)C3=CC=NC=C3)C4=CC(=C(C=C4)Cl)O
Summary of the method: as §1

[6] = compound: C1=CC=C2C(=C1)C3=NNC4=CC=CC(=C43)C2=O
Summary of the method: as §1

[7] = compound: C1CCN(C1)C(=O)NC2=CC=CC(=C2)NC3=NC=C(C(=N3)NCCC4=CN=CN4)Br
Summary of the method: as §1

[8] = compound: C1CN(CCC1(CC2=CC=C(C=C2)Cl)N)C3=NC=NC4=C3C=CN4
Summary of the method: as §1

IRAK-1-4 Inhibitor I = compound: C1COCCN1CCN2C3=CC=CC=C3N=C2NC(=O)C4=CC(=CC=C4)[N+](=O)[O-] [IRAK-1-4 Inhibitor I]
Summary of the method: as §1

ibrutinib = compound: C=CC(=O)N1CCC[C@@H](n2nc(-c3ccc(Oc4ccccc4)cc3)c3c(N)ncnc32)C1 [ibrutinib]
Summary of the method: as §1

[9] = compound: CC(=O)c1cnc2ccc(-c3cc(Cl)c(O)c(Cl)c3)nc2c1N[C@H]1CC[C@H](CN(C)C)CC1
Summary of the method: as §1

ralimetinib = compound: CC(C)(C)Cn1c(N)nc2ccc(-c3[nH]c(C(C)(C)C)nc3-c3ccc(F)cc3)nc21 [ralimetinib]
Summary of the method: as §1

[10] = compound: CC(C)(O)CC(=O)NCCn1ccc2ncnc(Nc3ccc(Oc4cccc(C(F)(F)F)c4)c(Cl)c3)c21
Summary of the method: as §1

[11] = compound: CC(C)C1=C2N=C(C=C(N2N=C1)NCC3=CC=CC=C3)NCCCCCCN
Summary of the method: as §1

[12] = compound: CC1=C(C(CC(=O)N1)C2=CC=C(C=C2)C(F)(F)F)C(=O)NC3=C(C=C4C(=C3)C=NN4)F
Summary of the method: as §1

[13] = compound: CC1=C(C2=C(C=C1)C(=O)C3=CC=CC=C3N2CCCN)C
Summary of the method: as §1

[14] = compound: CC1=C(C=C(C=C1)NC(=O)C2=CC(=CC=C2)C(C)(C)C#N)NC3=CC4=C(C=C3)N=CN(C4=O)C
Summary of the method: as §1

[15] = compound: CC1=C(C=C(C=C1)NC(=O)C2=CC(=CC=C2)N(C)C)NC(=O)C3=CC=C(C=C3)O
Summary of the method: as §1

[16] = compound: CC1=CC=C(C=C1)SC2=C3C=C(SC3=CN=C2)C(=O)N
Summary of the method: as §1

Measured: log2 fold change

EMP3 (UniProt P54852)
inactive: erlotinib 0.008 | [1] -0.015 | [2] 0.018 | [3] 0.017 | [4] 0.004 | [5] 0 | [6] 0.007 | [7] -0.002 | [8] 0.029 | IRAK-1-4 Inhibitor I 0.053 | ibrutinib 0.045 | [9] -0.012 | ralimetinib 0.088 | [10] -0.081 | [11] 0 | [12] 0.013 | [13] -0.003 | [14] 0.041 | [15] -0.036 | [16] -0.01

ELP3 (UniProt Q9H9T3)
inactive: erlotinib -0.002 | [1] -0.012 | [2] 0.003 | [3] 0.009 | [4] -0.012 | [5] 0.003 | [6] 0.008 | [7] -0.002 | [8] 0.002 | IRAK-1-4 Inhibitor I 0.002 | ibrutinib -0.01 | [9] -0.01 | ralimetinib 0.004 | [10] -0.018 | [11] 0.005 | [12] 0.007 | [13] -0.011 | [14] -0.003 | [15] -0.003 | [16] -0.002

ENO2 (UniProt P09104)
inactive: erlotinib 0.013 | [1] 0.013 | [2] 0.03 | [3] -0.037 | [4] 0.056 | [5] -0.091 | [6] 0.024 | [7] 0.005 | [8] -0.02 | IRAK-1-4 Inhibitor I -0.036 | ibrutinib -0.008 | [9] -0.014 | ralimetinib 0.031 | [10] -0.051 | [11] -0.007 | [12] -0.013 | [13] -0.029 | [14] 0.035 | [15] 0.032 | [16] 0.011

EIF2B3 (UniProt Q9NR50)
inactive: erlotinib 0.01 | [1] 0.029 | [2] -0.019 | [3] -0.009 | [4] 0.024 | [5] 0.001 | [6] -0.003 | [7] 0.014 | [8] 0.018 | IRAK-1-4 Inhibitor I -0.01 | ibrutinib 0.007 | [9] 0.02 | ralimetinib 0.011 | [10] 0.005 | [11] 0.004 | [12] -0.004 | [13] -0.007 | [14] 0.043 | [15] 0.021 | [16] -0.004

EMC8 (UniProt O43402)
inactive: erlotinib -0.007 | [1] 0.04 | [2] 0.007 | [3] 0.013 | [4] 0.051 | [5] -0.009 | [6] -0.046 | [7] -0.006 | [8] 0.01 | IRAK-1-4 Inhibitor I -0.03 | ibrutinib -0.02 | [9] 0 | ralimetinib -0.002 | [10] 0.006 | [11] 0.004 | [12] 0.032 | [13] 0.021 | [14] 0.011 | [15] 0.021 | [16] -0.001

EIF2B2 (UniProt P49770)
inactive: erlotinib -0.028 | [1] 0.006 | [2] -0.012 | [3] 0.005 | [4] 0.045 | [5] 0.013 | [6] 0.017 | [7] 0.001 | [8] -0.014 | IRAK-1-4 Inhibitor I 0.015 | ibrutinib -0.002 | [9] 0.016 | ralimetinib 0.005 | [10] -0.015 | [11] -0.026 | [12] 0.012 | [13] 0.011 | [14] 0.013 | [15] 0.011 | [16] 0.007

EIF4ENIF1 isoform 3 (UniProt Q9NRA8)
inactive: erlotinib 0.013 | [1] -0.149 | [2] -0.034 | [3] 0.021 | [4] -0.059 | [5] 0.03 | [6] -0.061 | [7] -0.022 | [8] 0.139 | IRAK-1-4 Inhibitor I -0.012 | ibrutinib -0.044 | [9] -0.033 | ralimetinib 0.015 | [10] -0.045 | [11] 0.053 | [12] 0.122 | [13] -0.049 | [14] 0.064 | [15] -0.008 | [16] -0.048

EIF4A3 (UniProt P38919)
inactive: erlotinib 0.04 | [1] 0.003 | [2] -0.008 | [3] -0.026 | [4] 0.016 | [5] 0.011 | [6] -0.002 | [7] -0.006 | [8] 0.001 | IRAK-1-4 Inhibitor I -0.001 | ibrutinib -0.011 | [9] 0.012 | ralimetinib 0.018 | [10] 0.009 | [11] 0.003 | [12] -0.026 | [13] -0.024 | [14] 0.031 | [15] 0.002 | [16] 0.019

ENO1, A0A2R8YEM5
inactive: erlotinib -0.019 | [1] 0.004 | [2] 0.011 | [3] -0.017 | [4] 0.031 | [5] 0.016 | [6] 0.009 | [7] 0 | [8] 0.032 | IRAK-1-4 Inhibitor I -0.031 | ibrutinib -0.013 | [9] 0.008 | ralimetinib -0.012 | [10] -0.016 | [11] -0.024 | [12] -0.032 | [13] 0.001 | [14] 0.012 | [15] -0.044 | [16] 0.014

ELF2 (UniProt Q15723)
inactive: erlotinib 0.023 | [1] -0.136 | [2] 0.059 | [3] -0.068 | [4] 0.07 | [5] -0.036 | [6] -0.056 | [7] 0.009 | [8] -0.022 | IRAK-1-4 Inhibitor I -0.01 | ibrutinib 0.07 | [9] 0.116 | ralimetinib 0.013 | [10] -0.038 | [11] 0.006 | [12] -0.017 | [13] -0.066 | [14] 0.035 | [15] 0.022 | [16] -0.028

ERGIC2 (UniProt Q96RQ1)
inactive: erlotinib 0.052 | [1] -0.082 | [2] -0.135 | [3] 0.031 | [4] -0.017 | [5] 0.019 | [6] -0.007 | [7] 0.046 | [8] 0.03 | IRAK-1-4 Inhibitor I 0.02 | ibrutinib 0.046 | [9] 0.043 | ralimetinib 0 | [10] -0.086 | [11] -0.041 | [12] -0.055 | [13] 0 | [14] 0.014 | [15] 0.086 | [16] 0.058

ERCC6L (UniProt Q2NKX8)
inactive: erlotinib 0.01 | [1] -0.098 | [2] 0 | [3] 0.016 | [4] -0.017 | [5] -0.009 | [6] -0.018 | [7] 0.015 | [8] -0.009 | IRAK-1-4 Inhibitor I -0.021 | ibrutinib -0.011 | [9] -0.038 | ralimetinib 0.006 | [10] 0.008 | [11] 0.001 | [12] -0.004 | [13] 0 | [14] -0.014 | [15] 0.02 | [16] -0.005

EIF4A1 (UniProt P60842)
inactive: erlotinib 0.024 | [1] 0.027 | [2] 0.008 | [3] -0.003 | [4] -0.005 | [5] -0.003 | [6] -0.03 | [7] 0.011 | [8] 0.042 | IRAK-1-4 Inhibitor I 0.009 | ibrutinib 0.021 | [9] -0.001 | ralimetinib 0 | [10] -0.024 | [11] 0.008 | [12] -0.034 | [13] -0.018 | [14] 0.003 | [15] 0.007 | [16] 0.009

EIF3G (UniProt O75821)
inactive: erlotinib 0.029 | [1] -0.059 | [2] 0.027 | [3] 0.001 | [4] -0.011 | [5] -0.001 | [6] -0.018 | [7] 0.012 | [8] 0.009 | IRAK-1-4 Inhibitor I -0.002 | ibrutinib -0.054 | [9] 0.003 | ralimetinib 0.009 | [10] 0.002 | [11] 0.01 | [12] -0.023 | [13] -0.001 | [14] 0.007 | [15] 0.02 | [16] -0.018

2 consecutive entries from above:
ERGIC2 (UniProt Q96RQ1)
inactive: erlotinib 0.052 | [1] -0.082 | [2] -0.135 | [3] 0.031 | [4] -0.017 | [5] 0.019 | [6] -0.007 | [7] 0.046 | [8] 0.03 | IRAK-1-4 Inhibitor I 0.02 | ibrutinib 0.046 | [9] 0.043 | ralimetinib 0 | [10] -0.086 | [11] -0.041 | [12] -0.055 | [13] 0 | [14] 0.014 | [15] 0.086 | [16] 0.058

ERCC6L (UniProt Q2NKX8)
inactive: erlotinib 0.01 | [1] -0.098 | [2] 0 | [3] 0.016 | [4] -0.017 | [5] -0.009 | [6] -0.018 | [7] 0.015 | [8] -0.009 | IRAK-1-4 Inhibitor I -0.021 | ibrutinib -0.011 | [9] -0.038 | ralimetinib 0.006 | [10] 0.008 | [11] 0.001 | [12] -0.004 | [13] 0 | [14] -0.014 | [15] 0.02 | [16] -0.005

Remaining list, next part:

EIF2AK2 (UniProt P19525)
inactive: erlotinib 0.02 | [1] 0.011 | [2] -0.055 | [3] -0.072 | [4] 0.003 | [5] 0.005 | [6] -0.039 | [7] -0.013 | [8] 0.016 | IRAK-1-4 Inhibitor I -0.011 | ibrutinib 0.014 | [9] 0.015 | ralimetinib -0.025 | [10] 0.035 | [11] -0.009 | [12] 0.015 | [13] -0.008 | [14] -0.015 | [15] -0.019 | [16] -0.03

EPB41 (UniProt P11171)
inactive: erlotinib -0.024 | [1] -0.021 | [2] -0.068 | [3] 0.006 | [4] -0.005 | [5] 0 | [6] 0.014 | [7] 0.004 | [8] 0.008 | IRAK-1-4 Inhibitor I -0.028 | ibrutinib 0.01 | [9] 0.026 | ralimetinib 0.009 | [10] 0.012 | [11] -0.003 | [12] -0.001 | [13] 0.018 | [14] -0.023 | [15] 0.01 | [16] 0.044
